These results are taken from publication PMC7862700.

Amino acid sequences for entries named in this document (tags omitted). A change or cut given only in a name is not applied to a line headed by its entry.
UniProt Q9Y603: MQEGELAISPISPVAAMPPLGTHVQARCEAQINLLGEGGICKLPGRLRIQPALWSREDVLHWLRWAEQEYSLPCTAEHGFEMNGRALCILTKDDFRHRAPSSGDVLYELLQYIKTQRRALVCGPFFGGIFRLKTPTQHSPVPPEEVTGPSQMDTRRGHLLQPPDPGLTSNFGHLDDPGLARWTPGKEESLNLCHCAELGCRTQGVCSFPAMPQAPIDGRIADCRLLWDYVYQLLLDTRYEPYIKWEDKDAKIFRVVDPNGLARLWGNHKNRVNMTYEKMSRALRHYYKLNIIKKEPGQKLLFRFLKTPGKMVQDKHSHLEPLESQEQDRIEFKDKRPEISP
UniProt P41212: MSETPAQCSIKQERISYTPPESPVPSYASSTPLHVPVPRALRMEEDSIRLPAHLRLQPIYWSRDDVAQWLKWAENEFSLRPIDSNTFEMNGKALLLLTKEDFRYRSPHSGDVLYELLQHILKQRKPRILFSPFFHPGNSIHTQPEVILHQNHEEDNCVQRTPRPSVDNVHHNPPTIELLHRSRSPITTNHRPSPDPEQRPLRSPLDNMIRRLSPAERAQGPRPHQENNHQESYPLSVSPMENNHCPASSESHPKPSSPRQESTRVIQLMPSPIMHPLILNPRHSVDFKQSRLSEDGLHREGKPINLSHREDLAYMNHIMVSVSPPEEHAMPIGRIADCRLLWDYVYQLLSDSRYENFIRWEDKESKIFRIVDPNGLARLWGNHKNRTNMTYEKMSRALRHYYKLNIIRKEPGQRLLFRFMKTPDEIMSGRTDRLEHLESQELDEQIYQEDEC

Only a part is listed here, and it is no random draw. At the low end of the ranking the order means little.

In one test the target is T1, ELF3 (UniProt P78545).
T1 sequence: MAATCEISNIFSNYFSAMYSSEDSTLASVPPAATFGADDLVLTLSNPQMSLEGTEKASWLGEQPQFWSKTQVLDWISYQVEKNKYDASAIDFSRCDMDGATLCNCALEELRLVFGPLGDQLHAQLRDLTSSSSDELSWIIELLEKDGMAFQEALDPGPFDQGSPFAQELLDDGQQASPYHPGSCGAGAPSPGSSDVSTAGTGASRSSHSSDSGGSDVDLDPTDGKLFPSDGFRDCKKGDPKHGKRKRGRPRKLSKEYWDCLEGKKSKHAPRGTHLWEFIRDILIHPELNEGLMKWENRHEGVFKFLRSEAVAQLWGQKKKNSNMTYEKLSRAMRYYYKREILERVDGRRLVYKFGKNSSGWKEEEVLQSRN
Nature of the test: DAPPL (digital affinity profiling via proximity ligation, sequencing). Conditions: 10 mM Tris-HCl pH 7.5, 50 mM NaCl, 1 mM DTT, 4% glycerol, room temperature, 30 min; GST-TFs on glutathione beads, 16-mer random dsDNA library, 0.1% …; high values mean tight binding; double strand, one strand shown; scale: fold enrichment (6-mer frequency, TF over GST control).
In the case of GCCGAG, the binding signal turned out to be 0.583.

Regarding TCGGCC, the binding signal was 0.852.

With CGGGGG, the binding signal stood at 0.405.

On to TCGTGG, for which the binding signal came to 0.712.

Consider GGTTCG, for which the binding signal amounted to 0.879.

In turn, ACCGTG gave a binding signal of 0.225.

AACGTG gave a binding signal of 0.345.

Sequence GATGTG yielded a binding signal of 0.889.

Take GGAGTT: the binding signal came out at 0.402.

The sequence GCCAAG came in with a binding signal of 0.883.

Sequence ATCAGT came in with a binding signal of 0.919.

CGCATG: the binding signal is 0.769.

For TAGGTG, the binding signal was 0.875.

Consider GCTGTG, for which the binding signal came out at 0.778.

As to AGGATC, the binding signal amounted to 0.888.

ACAGTC registered a binding signal of 0.447.

In turn, GTAGTC showed a binding signal of 0.74.

For the sequence GTAGTG, the binding signal worked out at 0.728.

On to CGGCGC, for which the binding signal came out at 0.675.

Take ACCATG: the binding signal came to 0.863.

The sequence GCATAT had a binding signal of 0.86.

Consider GGGGGG, for which the binding signal was 0.537.

In turn, CGTGGA yielded a binding signal of 0.446.

For the sequence GGGGAC, the binding signal came out at 0.483.

Take GAGGTG: the binding signal worked out at 0.548.

Regarding GTACGG, the binding signal is 0.927.

Consider GTAAGA, for which the binding signal is 0.851.

AACGGG: the binding signal was determined as 0.585.

As to AGGACA, the binding signal is 0.84.

With GCCGCG, the binding signal was determined as 0.818.

Consider GCACGG, for which the binding signal stood at 0.87.

The sequence ACCCAG showed a binding signal of 0.682.

ACCGCG showed a binding signal of 0.831.

AGCGCA returned a binding signal of 0.833.

In the case of GAAGGA, the binding signal worked out at 0.779.

As to GTCTGC, the binding signal is 0.829.

ACAGCG had a binding signal of 0.816.

In turn, GACAAC registered a binding signal of 0.938.

As for CGCATA, the binding signal came to 0.812.

The target in a further test is ETV7 (UniProt Q9Y603). The description is as above. Particulars: 10 mM Tris-HCl pH 7.5, 50 mM NaCl, 1 mM DTT, 4% glycerol, room temperature, 30 min; GST-TFs on glutathione beads, 16-mer random dsDNA library, 0.1% …; high values mean tight binding; double strand, one strand shown; scale: fold enrichment (6-mer frequency, TF over GST control).
GCCGAG: the binding signal stood at 0.711.

In turn, TCGGCC had a binding signal of 0.743.

CGGGGG displayed a binding signal of 0.446.

As to TCGTGG, the binding signal worked out at 0.833.

Sequence GGTTCG registered a binding signal of 0.785.

Sequence ACCGTG registered a binding signal of 0.255.

Sequence AACGTG showed a binding signal of 0.401.

In turn, GATGTG registered a binding signal of 0.824.

Sequence GGAGTT had a binding signal of 0.536.

Turning to GCCAAG, the binding signal stood at 0.858.

On to ATCAGT, for which the binding signal worked out at 0.874.

For CGCATG, the binding signal came out at 0.665.

The sequence TAGGTG displayed a binding signal of 0.901.

In turn, GCTGTG registered a binding signal of 0.734.

Sequence AGGATC gave a binding signal of 0.87.

The sequence ACAGTC displayed a binding signal of 0.499.

The sequence GTAGTC showed a binding signal of 0.766.

In turn, GTAGTG displayed a binding signal of 0.881.

With CGGCGC, the binding signal was 0.721.

ACCATG came in with a binding signal of 0.887.

For the sequence GCATAT, the binding signal is 1.08.

GGGGGG had a binding signal of 0.485.

CGTGGA returned a binding signal of 0.539.

For the sequence GGGGAC, the binding signal was 0.432.

For GAGGTG, the binding signal worked out at 0.549.

GTACGG returned a binding signal of 0.892.

In the case of GTAAGA, the binding signal was found to be 0.781.

Sequence AACGGG had a binding signal of 0.746.

In turn, AGGACA had a binding signal of 0.955.

Turning to GCCGCG, the binding signal was 0.738.

On to GCACGG, for which the binding signal amounted to 0.794.

The sequence ACCCAG came in with a binding signal of 0.72.

With ACCGCG, the binding signal came to 0.733.

As to AGCGCA, the binding signal was 0.994.

In the case of GAAGGA, the binding signal stood at 0.71.

Sequence GTCTGC gave a binding signal of 0.871.

Consider ACAGCG, for which the binding signal was found to be 0.798.

Take GACAAC: the binding signal worked out at 0.918.

CGCATA displayed a binding signal of 0.746.

The next test concerns the target ETV6 (UniProt P41212). The description is as above. Conditions: 10 mM Tris-HCl pH 7.5, 50 mM NaCl, 1 mM DTT, 4% glycerol, room temperature, 30 min; GST-TFs on glutathione beads, 16-mer random dsDNA library, 0.1% …; high values mean tight binding; double strand, one strand shown; scale: fold enrichment (6-mer frequency, TF over GST control).
GCCGAG had a binding signal of 0.675.

Sequence TCGGCC registered a binding signal of 0.649.

CGGGGG: the binding signal worked out at 0.455.

TCGTGG came in with a binding signal of 0.693.

In turn, GGTTCG had a binding signal of 0.775.

ACCGTG: the binding signal is 0.208.

With AACGTG, the binding signal came to 0.381.

Regarding GATGTG, the binding signal stood at 0.975.

The sequence GGAGTT showed a binding signal of 0.439.

GCCAAG came in with a binding signal of 0.828.

As for ATCAGT, the binding signal was 0.825.

As to CGCATG, the binding signal stood at 0.593.

In the case of TAGGTG, the binding signal is 0.823.

As for GCTGTG, the binding signal was found to be 0.691.

For the sequence AGGATC, the binding signal is 0.873.

ACAGTC gave a binding signal of 0.392.

Consider GTAGTC, for which the binding signal turned out to be 0.625.

In turn, GTAGTG yielded a binding signal of 0.805.

Sequence CGGCGC came in with a binding signal of 0.727.

ACCATG registered a binding signal of 0.867.

Sequence GCATAT came in with a binding signal of 0.967.

Regarding GGGGGG, the binding signal stood at 0.611.

CGTGGA returned a binding signal of 0.529.

Sequence GGGGAC registered a binding signal of 0.419.

For GAGGTG, the binding signal stood at 0.434.

Turning to GTACGG, the binding signal is 0.904.

With GTAAGA, the binding signal worked out at 0.792.

The sequence AACGGG displayed a binding signal of 0.7.

AGGACA: the binding signal is 0.879.

Regarding GCCGCG, the binding signal turned out to be 0.81.

Sequence GCACGG showed a binding signal of 0.768.

Consider ACCCAG, for which the binding signal is 0.659.

Turning to ACCGCG, the binding signal amounted to 0.825.

Sequence AGCGCA showed a binding signal of 0.948.

On to GAAGGA, for which the binding signal is 0.749.

For GTCTGC, the binding signal turned out to be 0.817.

For ACAGCG, the binding signal worked out at 0.779.

Sequence GACAAC returned a binding signal of 0.975.

For the sequence CGCATA, the binding signal was 0.78.
